The values below come from the supplement of paper PMC5949888.

Most values lie at the floor of the assay. Slopes are relative: functional sequences can read slightly below zero.

In this data set the test system is Saccharomyces cerevisiae PS128 hsf1 delta, HSF1(1-493) fusion. Nature of the data set: growth estimate (transactivation domain function in HSF1 fusion, heat-shock survival) (a.u. (slope of normalised read count over time)); higher = stronger growth at 37°C, i.e. more transactivation activity. As to conditions: library: random library.
On to VSDSYIIVM, for which the growth estimate is under -0.25.
As to SKSNLGWVEVCNEGHYWMRV, the growth estimate is under -0.25.
EVQDRPLQTAKVHRAR: the growth estimate was -0.245.
As for NRRLSSCGCTFADRKGRKLG, the growth estimate was under -0.25.
As to RRQCLRLAVGVFSKSLTGSI, the growth estimate is under -0.25.
Turning to TCRQGTD, the growth estimate was under -0.25.
For RCDPLRGDAPVEIESEKNSP the value was under -0.25; for DIRRPPARIEKNRRIRHHNG, under -0.25; for QRLWGTPVGGYAEKKKWREC, under -0.25.
Turning to VKILIFLHLGCRGLARGGQG, the growth estimate was under -0.25.
VSGRPWRIAQRV: the growth estimate is under -0.25.
HGFPPGSVSG: the growth estimate is under -0.25.
On to RRDRLLRDAGQLGYTRLEVL, for which the growth estimate is under -0.25.
To GIVRPFILAQILVIGFRPRQ belongs under -0.25.
RWIGTILSVCSYRPALGTMH: the growth estimate was under -0.25.
In the case of VVRGDLLPMLRLKVTAPRWR, the growth estimate was under -0.25.
To WCLRCLLNVGSKIC belongs under -0.25.
For the substance SPQGEISGFQV, the growth estimate was under -0.25.
As for AHLPRD, the growth estimate is under -0.25.
As to ASRTNRRGPYG, the growth estimate was under -0.25.
As to VGGRCLPPAPLLGGAPKKAV, the growth estimate is under -0.25.
In the case of WLSS, the growth estimate was under -0.25.
Turning to VPHDLLAILCGPREISEHII, the growth estimate was under -0.25.
For RLRSQVGRVITKCQNSCTLW the value was under -0.25.
In the case of QGTQVPGYRIFSNEIGFKGR, the growth estimate is under -0.25.
To PMPG belongs under -0.25.
For the substance RNQFHGPDSRAEILHRRIGI, the growth estimate was under -0.25.
In the case of LGYQKVCMRLELNG, the growth estimate was under -0.25.
To SCCGS belongs under -0.25; to WRFLWSGSMD, -0.219; to NLQRAML, under -0.25.
For LTSSQVSGE the value was under -0.25.
Consider TETVRNTYGSPGIMGDSRLG, for which the growth estimate was under -0.25.
In the case of NVKSL, the growth estimate was 0.0603.
Consider IWKVTARVNLES, for which the growth estimate is under -0.25.
Take ENTLTYSD: the growth estimate is under -0.25.
With VRSNFDYN, the growth estimate was -0.231.
Consider GSLRMLDQPILQLADLSTGP, for which the growth estimate is under -0.25.
Regarding LLSSSESGALLFAMASVFVG, the growth estimate was under -0.25.
Turning to IQTLLWAAHYRRCP, the growth estimate was under -0.25.
To GELCRSETLCCEVPTFTTAG belongs under -0.25.
Consider ERLANVYARRSRLRPQYKRS, for which the growth estimate was under -0.25.
For VHSPLDLYIGNAYTLN the value was under -0.25; for PCIYRHGSRCVSRRATAPVS, under -0.25.
As to GNSILSYPAFGLGGSAVRLP, the growth estimate was under -0.25.
As for PYCDWVGIKSVVS, the growth estimate was under -0.25.
On to SGLMGHGCRATLGQMGAAQT, for which the growth estimate is under -0.25.
To LFTFQAASMF belongs under -0.25; to HRQM, under -0.25.
For SWATPRHCAQISSSKLPCPF the value was under -0.25; for YPSRKLLVETKRLQISTNRL, -0.243.
With EYKASCYPRR, the growth estimate is under -0.25.
To HGVTNTVAPAFSPKTLLVSP belongs under -0.25; to YRYEVIDPL, under -0.25; to PRIMAVQSPLG, under -0.25.
Take TLEAD: the growth estimate was under -0.25.
Regarding RSW, the growth estimate was under -0.25.
Regarding LCAHIL, the growth estimate was under -0.25.
For KHTGQRGANSDLATPPFEPQ, the growth estimate was under -0.25.
Turning to HFLFVSLLSVEATAVR, the growth estimate was under -0.25.
To LVVTKISRRATK belongs under -0.25; to STPDTAVPVLY, 0.0518; to NLLGTGIGKERGVPACGFMD, under -0.25.
Turning to ATPLACPEVPSFLSENHSSP, the growth estimate is under -0.25.
For VGVCRCKQVHITTAFASARG the value was under -0.25.
GSEGDCSLATREVGVLEQIR: the growth estimate is -0.219.
To DGDGRAPVILLSR belongs under -0.25; to PRL, under -0.25.
Take GEVYTSSSPSVTRFKSPQNC: the growth estimate was under -0.25.
Turning to DPQSMHLVVGSTRSWLRLAG, the growth estimate was under -0.25.
For SQWL the value was under -0.25; for HCCTPGGPPTNDSNFEGRAH, under -0.25; for PFATLNAQARTVTRVGIIG, under -0.25.
For PMNLNMVDCRMRPGSPGVCK, the growth estimate is under -0.25.
In the case of LLQGGPHRLVAGKGSSSHSG, the growth estimate is under -0.25.
With RGKYVSCAASD, the growth estimate is under -0.25.
Regarding YRVPA, the growth estimate was under -0.25.
On to VPSWDPQTREVGW, for which the growth estimate is under -0.25.
For LQGAGGALFA the value was under -0.25; for VMVHLSSYGARRSRLCGEAH, under -0.25; for FSLIAFQIERLNVRRNAAA, under -0.25.
For PSNFEPIPMKHSIKKSDRGP the value was under -0.25.
For the substance IRGLTQQGTVDNLSMLLSIR, the growth estimate is -0.237.
As for GVYNSKECAQ, the growth estimate was under -0.25.
As to SMFETRIQLAFDCRAV, the growth estimate is under -0.25.
With VTRDLPRMFQVFVR, the growth estimate was under -0.25.
On to LVVIHAFSSMSRGSARIG, for which the growth estimate was under -0.25.
On to TLKE, for which the growth estimate is under -0.25.
Turning to SCKRLNP, the growth estimate was under -0.25.
Consider WGHAFGRSSSARASSKM, for which the growth estimate was under -0.25.
On to VGSLCDDPLGGALLKLEAP, for which the growth estimate is under -0.25.
For TTGVLG the value was under -0.25; for GCTFKGCGSSRR, 0.183.
In the case of KVISLTKGRKVF, the growth estimate was under -0.25.
Regarding SVAEIGLEGGAPQLM, the growth estimate is under -0.25.
On to LQLWCPRTGTNGVAVRRLST, for which the growth estimate is -0.0607.
On to TMARG, for which the growth estimate was under -0.25.
For VGT, the growth estimate is under -0.25.
Regarding SRLDRILLWL, the growth estimate is under -0.25.
For RLADKRTPYFSARGNVRDPL, the growth estimate is under -0.25.
Turning to TRQEPDSGRTQGGKF, the growth estimate is under -0.25.
As to VRTHN, the growth estimate was -0.248.
With LELSCLGGRVAAR, the growth estimate is under -0.25.
As for LDGLAIGAT, the growth estimate was under -0.25.
Take SMPPFIMLPVHAGSGEPWR: the growth estimate was under -0.25.
As for LSCEVDAQSLICKMVQLRKL, the growth estimate is under -0.25.
Take LQSYKVRFAAD: the growth estimate is under -0.25.
Regarding LDGSFARRGIDC, the growth estimate is under -0.25.
KYICYNSEHSSLTLLISRVD: the growth estimate was under -0.25.
In the case of KVNLFV, the growth estimate was under -0.25.
With RNKLRQRRAP, the growth estimate was under -0.25.
As to RDKYFHNYMRG, the growth estimate is under -0.25.
On to AFGITRRCQSAISSASSKTS, for which the growth estimate was under -0.25.
For TTCSRVGWKIVGPHWTAGVP, the growth estimate is -0.16.
As to AQREVTNPASCGYS, the growth estimate is under -0.25.
As for PPNPSATKGSGNGILKGVNR, the growth estimate was under -0.25.
